Experimental data: US20190151283A1, “NON-STEROIDAL SELECTIVE GLUCOCORTICOID RECEPTOR AGONISTIC MODULATORS (SEGRAMs) AND USES THEREOF” (ASSOCIATION POUR LA RECHERCHE À L'IGBMC (ARI), priority 2017, published 2019)
At least one compound was matched to its structure with a doubt left.

Experiments:
Balb/C mouse ears [1] = assay: TPA-induced irritant contact dermatitis-like inflammation; assay type: in vivo
Method: Balb/C mouse ears were topically treated with TPA to induce an “irritant contact dermatitis-like inflammation”.
Mice were treated for 4 days with TPA, then for 5 extra days (until D9) with either vehicle, TPA alone, TPA and Dex, TPA and CpdX or TPA and CpdX-D3.
At D10, RNA transcripts were extracted from mouse ear skin samples and the transcripts of CCL4, COX2, MMP13, IL-1β, IL-6, TNF-α, TSLP, IL-22 and IL-23 were analyzed by q-RT-PCR. Ear skin was harvested, and histological (with H&E staining) and immunohistochemical (with anti-TSLP antibodies) analyses were carried out.

Balb/C mouse ears [2] = assay: Calcipotriol (MC 903)-induced atopic dermatitis-like inflammation; assay type: in vivo
Method: To investigate the CpdX anti-inflammatory activity in vivo, Balb/C mouse ears were topically treated with calcipotriol (MC 903, a vitamin D3 analogue), in order to induce an atopic dermatitis (AD)-like inflammation (Li et al., 2006. Proc Natl Acad Sci USA. 103[…].
Mice were treated for 14 days with MC 903, and then for 8 extra days (until D22) with either MC 903 alone (control), MC 903 and Dex, MC 903 and CpdX, MC 903 and CpdX(eA), MC 903 and CpdX(eB), MC 903 and CpdX-D3, MC 903 and CpdX-D3(eA) and MC 903 and CpdX-D3(eB).
At D23, RNA transcripts were extracted from mouse ear skin samples and the transcripts of 7 cytokines (MMP13, COX2, IL-1β, IL-6, IL-10, IL-13 and TSLP) were analyzed by q-RT-PCR. Ear skin was harvested and histological (with H&E staining) and immunohistochemical (with anti-TSLP antibodies) analyses were carried out.

mice [3] = assay: Ovalbumin (OVA)-induced asthma-like allergic lung inflammation; assay type: in vivo, mouse
Method: (§1) Glucocorticoids have been (Pearlman et al., 1997. Ann Allergy Asthma Immunol. 78(4):356-62), and are still, widely used in asthma therapy. In order to investigate the possible CpdX anti-inflammatory activity in vivo, mice were sensitized and challenged with either ovalbumin (OVA) or house dust mite (HDM) to induce an asthma-like allergic lung inflammation.
Mice were intraperitoneally sensitized with either 50 μg OVA together with alum or with alum alone on D0, D7 and D14. Mice were then subdivided into three groups, and on D19, D20 and D21, they were intranasally (i.n.) challenged with 10 μg OVA. The first and the second group received intranasally 0.5 mg/kg of body weight of Dex or CpdX respectively, while the third group served as a control.
On D22, the lung allergic inflammation was assessed for each mouse by examination of the bronchoalveolar lavage fluid (BAL). The total BAL cells, eosinophils, neutrophils, macrophages and lymphocytes were counted. RNA transcripts were extracted from lung samples and RNA transcripts of IL-1β, IL-6, IL-4, IL-5, IL-10, IL-13, Eotaxin, CCL4 and TNFα were analyzed by q-RT-PCR. Histological (with H&E staining) and immunohistochemical (with eosinophil-specific and neutrophil-specific antibodies) analyses of lung tissues were also carried out.

mice [4] = assay: House dust mite (HDM)-induced asthma-like allergic lung inflammation; assay type: in vivo, mouse
Method: as §1
Mice were intranasally sensitized with 1 μg HDM from DO to D4, and further intranasally sensitized with 10 μg HDM on D14 and D21. Mice were then subdivided into eight groups, and on D29, D30 and D31, each mouse was again intranasally challenged with 1 μg HDM. The first seven groups received respectively 0.5 mg/kg of body weight of Dex, CpdX, CpdX(eA), CpdX(eB), CpdX-D3, CpdX-D3(eA) or CpdX-D3(eB), while the eighth group served as a control.
On D32, the airway responsiveness was invasively determined using a computer-controlled small animal ventilator (FlexVent® system, SCIREQ Technologies). Mice were anesthetized with xylazine (15 mg/kg, i.p.), followed 15 minutes later by an i.p. injection of pentobarbital sodium (54 mg/kg). An 18-gauge metal needle was then inserted into the trachea, each mouse was connected to the FlexVent® ventilator and quasi-sinusoidally ventilated with a tidal volume of 10 mL/kg at a frequency of 150 breaths/minute and a positive end-expiratory pressure of 2 cm H2O, in order to achieve a mean lung volume close to spontaneous breathing. After baseline measurement, mice were challenged for 10 seconds with a saline aerosol and, at 4.5-minute intervals, with 50 mg/mL methacholine. Airway resistance and elastance were expressed as cmH20·s/mL and cmH2O/mL respectively.
The lung allergic inflammation was assessed by examination of the bronchoalveolar lavage (BAL) fluid from each of these HDM-challenged mice. The total BAL cells, eosinophils, neutrophils, macrophages and lymphocytes were counted. RNA transcripts were extracted from lung samples. RNA transcripts of IL-1β, IL-6, IL-4, IL-5, IL-13, Eotaxin, CCL4, IL-10 and TNFα were analyzed by q-RT-PCR. Lung tissues were harvested and histological (with H&E staining) and immunohistochemical analyses were also carried out (with eosinophil-specific and neutrophil-specific antibodies).

Balb/C mouse ears [5] = assay: Aldara-induced psoriasis-like skin inflammation; assay type: in vivo
Method: Balb/C mouse ears were topically treated with Aldara® to induce a psoriasis-like skin inflammation (Vinter et al., 2015. Br J Dermatol. 172(2):345-53). Mice were treated for 9 days with Aldara®, including a co-topical treatment for the last 5 days with either ethanol (Vehicle), Dex, CpdX or CpdX-D3.
At D10, RNA transcripts were extracted from mouse ears and IL-17a, IL-17c, IL-17f and IL-22 transcripts were analyzed by q-RT-PCR. Ear skin samples were also harvested for histological analyses (with H&E staining).

Male mice (DBA-1 strain) = assay: Collagen-induced arthritis (CIA); assay type: in vivo, mouse
Method: Mice were treated with collagen to induce a Th17 rheumatoid arthritis-like inflammation as described by Inglis et al. (2007. Arthritis Res Ther. 9(5):R113) and Geboes et al. (2009. Arthritis Rheum. 60(2):390-5).
Male mice (DBA-1 strain) were subcutaneously-injected with 100 μg collagen per mouse on D0. The hind paw thickness at the ankle level was regularly measured with a caliper. When the ankle thickness had reached around 4 mm (T0, i.e., 30 to 50 days after the collagen injection on D0), mice were daily intraperitoneally-injected for 10 days (T0 to T10) with either vehicle (NaCl 0.9%), Dex, CpdX, CpdX(eA), CpdX(eB), CpdX-D3, CpdX-D3(eA) or CpdX-D3(eB) (1 mg/kg body weight diluted in NaCl 0.9%), and the hind paw thickness at the ankle level was daily measured with a caliper. Pictures of the hind paws were taken at days T0 and T10 (before and after the treatment with either Vehicle, Dex, CpdX, CpdX(eA), CpdX(eB), CpdX-D3, CpdX-D3(eA) or CpdX-D3(eB)), in order to assess the course of swelling.
RNA transcripts were extracted from whole hind paws of collagen-untreated and collagen-treated mice at T0 and T10. IL-1β, IL-6, IL-17a, IL-17f and TNFα transcripts were analyzed by q-RT-PCR.

Balb/C mice [6] = assay: Dextran sodium sulfate (DSS)-induced ulcerative colitis; assay type: in vivo, mouse
Method: To investigate the anti-inflammatory activity of CpdX and CpdX-D3 on a Th17 ulcerative colitis, Balb/C mice were treated with 3% DSS in drinking water for 13 days, with or without an intraperitoneal administration of either Dex, CpdX, CpdX(eA), CpdX(eB), CpdX-D3, CpdX-D3(eA) or CpdX-D3(eB) (1 mg/kg of body weight) on D11, D12 and D13.
At D14, RNA transcripts were extracted from mouse colons. IL-1β, IL-6, IL-17a, IL-17f, TSLP and MMP13 transcripts were analyzed by q-RT-PCR. Colon samples were also harvested for histological analyses (with H&E staining).

Balb/C mice [7] = assay: Ovalbumin (OVA)-induced allergic conjunctivitis; assay type: in vivo, mouse; details: 0.1% instillation D22 to D24, 20 minutes after the last OVA challenge
Method: To investigate the anti-inflammatory effect of CpdX or CpdX-D3 on an allergic conjunctivitis, Balb/C mice were intraperitoneally sensitized with 50 μg OVA with alum on both days D1 and D8, and then challenged from D15 to D21 with 250 μg OVA in 5 μL of sterilized vehicle (0.9% NaCl), which were directly instilled onto the conjunctival sac. From D22 to D24, mice were divided into several groups, and received instillations with either OVA alone, OVA together with 0.1% of either Dex, CpdX, CpdX(eA), CpdX(eB), CpdX-D3, CpdX-D3(eA) or CpdX-D3(eB).
The clinical appearance of mouse eyes was evaluated 20 minutes after the last instillation on D24. Clinical signs (conjunctival hyperemia, lid edema and tearing) were scored to evaluate the occurrence and severity of conjunctivitis as described by Gimenes et al. (2015. Experimental Eye Research 134:24-32). Parameters were graded on a scale ranging from 0 to 3, (0=absence, 1=mild, 2=moderate, and 3=severe symptoms), each animal receiving a total clinical score ranging from 0 to 9. The data were expressed as mean±SEM with at least four mice per treatment.

[8] = histology of lung paraffin sections
[9] = i.p. 1 mg/kg on D11, D12, D13, H&E histology

With `C[C@@H]1C[C@H]2[C@@H]3CCC4=CC(=O)C=C[C@]4(C)[C@@]3(F)[C@@H](O)C[C@]2(C)[C@@]1(O)C(=O)CO` [Dex, Dexamethasone, reference compound] the “TPA-induced ear skin inflammation, histological analysis” value (Balb/C mouse ears [1]; compared to the control, data not shown) was “significantly decreased”, the “expression of TSLP in TPA-treated mouse epidermis” value (Balb/C mouse ears [1]; immunochemistry with TSLP-specific antibody, data not shown) was “similarly strongly decreased” and the TPA-induced skin inflammation (Balb/C mouse ears [1]; topical, 5 days co-treatment with TPA) was “significantly decreased”. For the same molecule, the “MC 903-induced ear skin inflammation, histological analysis” value (Balb/C mouse ears [2]; compared to the control) was “decreased”, the “expression of the TSLP lymphokine in MC 903-treated mouse epidermis” value (Balb/C mouse ears [2]; immunohistochemistry, data not shown) was “similarly strongly decreased” and the “MC 903-induced skin inflammation” value (Balb/C mouse ears [2]; topical, 8 days co-treatment with MC 903) was “significantly decreased”. For the same molecule, the “eosinophils and neutrophils in lung, immunohistochemistry” value (mice [3]; data not shown) was “similarly decreased”, the “peribronchiolar and perivascular inflammatory cell infiltration” value (mice [3]; [8]) was “strongly decreased” and the “number of macrophages in BAL” value (mice [3]; intranasal 0.5 mg/kg on D19-D21, BAL on D22) was “unchanged”. For the same molecule, the “total number of BAL cells, eosinophils, neutrophils and lymphocytes” value (mice [3]; intranasal 0.5 mg/kg on D19-D21, BAL on D22, vs control group) was “significantly decreased”, the “expressions of IL-1β, IL-6, IL-4, IL-5, IL-10, IL-13, Eotaxin, CCL4 and TNFα in lung samples” value (mice [3]; q-RT-PCR, D22) was “significantly and similarly decreased” and the “number of neutrophils and macrophages in BAL” value (mice [4]; 0.5 mg/kg on D29-D31, BAL on D32) was “No significant change”. The “total number of BAL cells, eosinophils and lymphocytes” value (mice [4]; 0.5 mg/kg on D29-D31, BAL on D32, vs control group) was “significantly decreased”, the “eosinophils in lung, immunohistochemistry” value (mice [4]; eosinophil-specific antibodies, data not shown) was “decreased” and the “peribronchiolar and perivascular inflammatory cell infiltration” value (mice [4]; [8]) was “strongly decreased”. For the same molecule, the “neutrophils in lung, immunohistochemistry” value (mice [4]; neutrophil-specific antibody, data not shown) was “no significant change”, the “expressions of IL-1β, IL-6, IL-4, IL-5, IL-13, Eotaxin and CCL4 (pro-inflammatory genes) in lung samples” value (mice [4]; q-RT-PCR, D32) was “significantly and similarly decreased” and the “expressions of IL-10 and TNFα in lung samples” value (mice [4]; q-RT-PCR, data not shown) was “not affected”. For the same molecule, the “HDM-induced airway hyperresponsiveness (AHR), airway resistance and elastance” value (mice [4]; response to methacholine 50 mg/mL, D32) was “similarly reduced”, the “induced expression of the Th17 cytokines IL-17a, IL-17c, IL-17f and IL-22” value (Balb/C mouse ears [5]; ear extracts, q-RT-PCR, D10) was “similarly reduced” and the “Aldara-induced psoriasis-like skin inflammation, H&E histology” value (Balb/C mouse ears [5]; mouse, in vivo) was “could reduce”. The “Aldara-induced psoriasis-like skin inflammation” value (Balb/C mouse ears [5]; topical co-treatment for the last 5 days, 1 nmole/cm^2) was “significantly decreased”, the “hind paw thickness at the ankle level” value (Male mice (DBA-1 strain); i.p. 1 mg/kg daily for 10 days (T0 to T10)) was “rapid decrease” and the “RNA transcripts of the pro-inflammatory genes expressed in the hind paws (IL-1β, IL-6, IL-17a, IL-17f, TNFα)” value (Male mice (DBA-1 strain); q-RT-PCR, T10, 'but not' = not repressed) was “similarly repressed”. The “pro-inflammatory genes overexpressed in DSS-induced ulcerative colitis (IL-1β, IL-6, IL-17a, IL-17f, TSLP, MMP13)” value (Balb/C mice [6]; colon, q-RT-PCR, D14) was “similarly repressed”, the colonic villus/crypt structure (Balb/C mice [6]; [9]) was “almost reestablished” and the “mucosal and submucosal cell infiltration” value (Balb/C mice [6]; [9]) was “significantly decreased”. For the same molecule, the “clinical signs of allergic conjunctivitis (conjunctival hyperemia, lid edema and tearing)” value (Balb/C mice [7]) was “considerably reduced”.
